Publication PMC8040471
Results are given in words; binding and its absence hold for the method and conditions named. Binding seen in cells or lysates may run through a third protein. Binding can be weak; no strength is given.

The chains behind the UniProt entries cited, without tags or fusion partners. Where a name states a change or a piece, a line headed by the entry shows the natural chain unless it says otherwise.
UniProt O95831: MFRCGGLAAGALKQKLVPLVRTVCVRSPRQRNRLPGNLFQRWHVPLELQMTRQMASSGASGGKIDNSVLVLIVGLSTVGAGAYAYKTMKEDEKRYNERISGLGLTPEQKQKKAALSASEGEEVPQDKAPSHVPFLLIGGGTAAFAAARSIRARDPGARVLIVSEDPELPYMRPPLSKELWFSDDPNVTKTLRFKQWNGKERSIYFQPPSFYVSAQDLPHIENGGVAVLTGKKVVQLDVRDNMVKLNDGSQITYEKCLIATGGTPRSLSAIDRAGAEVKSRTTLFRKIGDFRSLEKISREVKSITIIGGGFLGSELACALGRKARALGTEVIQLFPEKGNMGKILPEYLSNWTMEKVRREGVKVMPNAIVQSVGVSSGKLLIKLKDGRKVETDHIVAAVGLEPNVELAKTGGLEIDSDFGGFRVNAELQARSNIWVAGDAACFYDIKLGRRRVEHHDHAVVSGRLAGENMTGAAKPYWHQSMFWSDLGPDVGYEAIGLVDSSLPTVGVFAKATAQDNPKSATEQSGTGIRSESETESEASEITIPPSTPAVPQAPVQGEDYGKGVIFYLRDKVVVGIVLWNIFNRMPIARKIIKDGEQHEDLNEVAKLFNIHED
UniProt Q9P286: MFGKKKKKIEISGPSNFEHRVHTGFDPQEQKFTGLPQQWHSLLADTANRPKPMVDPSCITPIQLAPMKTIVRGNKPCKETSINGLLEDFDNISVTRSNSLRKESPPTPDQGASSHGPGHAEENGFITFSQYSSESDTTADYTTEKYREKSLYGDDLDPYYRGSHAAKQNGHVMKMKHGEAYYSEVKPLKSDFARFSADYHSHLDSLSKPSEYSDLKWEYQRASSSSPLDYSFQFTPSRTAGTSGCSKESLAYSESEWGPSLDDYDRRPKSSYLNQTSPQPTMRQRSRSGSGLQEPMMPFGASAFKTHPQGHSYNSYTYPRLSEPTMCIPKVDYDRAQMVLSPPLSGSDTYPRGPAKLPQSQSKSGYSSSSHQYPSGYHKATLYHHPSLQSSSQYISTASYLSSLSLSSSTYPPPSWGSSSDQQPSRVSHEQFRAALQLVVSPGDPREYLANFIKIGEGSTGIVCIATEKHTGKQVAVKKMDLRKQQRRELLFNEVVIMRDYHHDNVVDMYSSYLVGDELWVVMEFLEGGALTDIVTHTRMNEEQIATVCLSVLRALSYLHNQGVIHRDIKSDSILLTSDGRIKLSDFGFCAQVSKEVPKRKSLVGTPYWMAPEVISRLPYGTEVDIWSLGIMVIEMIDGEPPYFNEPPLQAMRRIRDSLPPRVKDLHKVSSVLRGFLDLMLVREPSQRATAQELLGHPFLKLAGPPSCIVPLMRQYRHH
UniProt Q14974: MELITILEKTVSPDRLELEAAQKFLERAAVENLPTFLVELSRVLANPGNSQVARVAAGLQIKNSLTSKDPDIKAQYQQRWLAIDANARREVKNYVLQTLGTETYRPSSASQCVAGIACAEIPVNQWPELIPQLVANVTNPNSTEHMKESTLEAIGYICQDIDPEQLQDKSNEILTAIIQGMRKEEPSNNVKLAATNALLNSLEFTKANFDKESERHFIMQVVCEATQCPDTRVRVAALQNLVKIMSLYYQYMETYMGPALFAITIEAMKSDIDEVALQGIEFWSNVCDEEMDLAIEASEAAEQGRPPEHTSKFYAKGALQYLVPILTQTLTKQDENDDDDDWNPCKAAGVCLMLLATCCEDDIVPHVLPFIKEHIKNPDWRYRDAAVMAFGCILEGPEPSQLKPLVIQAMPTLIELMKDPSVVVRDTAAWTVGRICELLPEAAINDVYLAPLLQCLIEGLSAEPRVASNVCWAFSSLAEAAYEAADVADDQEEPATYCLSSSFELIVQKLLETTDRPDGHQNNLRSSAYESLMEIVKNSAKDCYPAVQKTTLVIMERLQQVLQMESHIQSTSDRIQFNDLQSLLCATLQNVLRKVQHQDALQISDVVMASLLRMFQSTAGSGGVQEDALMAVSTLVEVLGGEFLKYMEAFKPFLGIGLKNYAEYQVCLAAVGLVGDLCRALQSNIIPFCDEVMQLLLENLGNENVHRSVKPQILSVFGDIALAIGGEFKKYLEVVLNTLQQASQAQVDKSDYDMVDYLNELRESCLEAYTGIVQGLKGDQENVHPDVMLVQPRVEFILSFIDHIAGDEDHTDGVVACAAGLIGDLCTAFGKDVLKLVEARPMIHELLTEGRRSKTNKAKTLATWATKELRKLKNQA
UniProt O00629: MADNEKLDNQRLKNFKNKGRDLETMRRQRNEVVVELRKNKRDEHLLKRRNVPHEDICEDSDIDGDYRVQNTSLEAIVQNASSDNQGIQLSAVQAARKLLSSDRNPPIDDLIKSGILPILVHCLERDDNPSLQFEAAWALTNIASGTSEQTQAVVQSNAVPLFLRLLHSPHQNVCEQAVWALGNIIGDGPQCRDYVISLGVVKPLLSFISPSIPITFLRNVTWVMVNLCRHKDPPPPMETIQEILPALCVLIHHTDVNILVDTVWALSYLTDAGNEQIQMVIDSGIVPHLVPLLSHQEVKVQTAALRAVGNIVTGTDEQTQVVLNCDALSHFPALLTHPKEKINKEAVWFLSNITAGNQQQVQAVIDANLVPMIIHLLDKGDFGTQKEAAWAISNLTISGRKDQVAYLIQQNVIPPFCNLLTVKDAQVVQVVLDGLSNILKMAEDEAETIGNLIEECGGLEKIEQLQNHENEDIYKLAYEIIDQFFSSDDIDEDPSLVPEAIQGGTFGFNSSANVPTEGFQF

Experiments:
GST-AIF (WT) (human) = GST-AIF (WT) (human) (UniProt O95831); test: pull-down; GST pull-down in vitro with GST-AIF or GST-truncated AIF as bait; method as in ref. 22
Flag-AIF T281A (human) = Flag-AIF T281A (human) (UniProt O95831); test: co-IP; lysates of cells with Flag-AIF WT or T281A immunoprecipitated with anti-Flag antibody, immunoblotted with indicated antibodies
[1] = molecular target: Apoptosis-inducing factor (AIF), endogenous (human (endogenous in BT474 and T47D)) (UniProt O95831); test: co-IP; endogenous proteins; BT474 and T47D lysates immunoprecipitated with anti-PAK5, anti-AIF or IgG, western blot

binding (Flag-AIF T281A (human))	Substance	also measured
	PAK5 used in the GST pull-down assays (from UniProt Q9P286 1-719) (enzyme)	binding (GST-AIF (WT) (human)): binds
binds	GST-importin β1 (from UniProt Q14974 1-876)	
	p21 activated kinase 5 (PAK5), endogenous (from UniProt Q9P286 1-719) (enzyme)	binding [1]: binds
binds	GST-importin α3 (from UniProt O00629 1-521)	
binds	PAK5, overexpressed in cells (from UniProt Q9P286 1-719) (enzyme)	
